No constants are given. Whether binding was seen depends on the method and setting. Some entries that bind do so weakly or less than the wild type. Blank lines part the entries; values can stand above or below the binder they belong to.
Target: mesothelin-Fc recombinant protein (human) (UniProt Q13421)
Assay: FACS staining of CAR-T cells with mesothelin-Fc recombinant protein (FIG. 19)

Protein sequences, listed by entry. Tags and fused reporters are not part of them. Lines headed by an entry give the natural chain unless they say otherwise; changes in a name come on top. Chains listed by the source or under a name are the forms on record and can include a tag or linker.
mesothelin-Fc recombinant protein (Q13421, form named): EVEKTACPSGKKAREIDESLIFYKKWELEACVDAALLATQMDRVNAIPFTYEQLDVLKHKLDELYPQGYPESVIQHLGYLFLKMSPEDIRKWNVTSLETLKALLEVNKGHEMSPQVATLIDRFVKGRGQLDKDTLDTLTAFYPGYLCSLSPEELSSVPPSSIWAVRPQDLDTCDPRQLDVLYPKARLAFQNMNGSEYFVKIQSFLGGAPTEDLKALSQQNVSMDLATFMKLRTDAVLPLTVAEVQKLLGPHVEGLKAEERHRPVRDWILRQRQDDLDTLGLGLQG

B2: anti-mesothelin scFv-M8 (scFv)
scFv: DIQLTQSPSSLSASVGDRVTITCRASQSISSSLNWYQQKPGKAPKLLIYAASSLQSGVPSRFSGSGSGTDFTLTISSLQPEDFATYSCQQSYSTPLTFGGGTKVEIKGGGGSGGGGSGGGGSQVHLVESGGGVVQPGRSLRVSCAASGFTFSGYAMYWVRQAPGKGLEYVSAITTNGGSTNYADSVKGRFTISRDNSKNTLYLQMSSLRAGDTAVYYCARGAPGYRGYYMDVWGKGTTVTVSS
- binding: binds

B4: anti-mesothelin scFv-M6 (scFv)
scFv: EIVMTQSPATLSLSPGERATLSCRASQSIGNSLAWYQQKPGQAPRLLIYDVSNRATGIPARFSGSGSGTDFTLTISSLEPEDFAVYYCQHRYSWPLTFGGGTKVEIKGGGGSGGGGSGGGGSQVQLVQSGGGLVKPGGSLRLSCAASGFTFSDYYMSWIRQAPGKGLEWVSYISSSGSTIYYADSVKGRFTISRDNAKNSLYLQMNSLRAEDTAVYYCARDGYRTHNWFDPWGQGTLVTVSS
- binding: binds

B5: anti-mesothelin scFv-M13 (scFv)
scFv: AIRMTQSPSSLSASVGDRVTITCRASQGISNSLAWYQQKPGKAPKLLLYAASRLESGVPSRFSGSGSGTDYTLTISSLQPEDFATYYCQQYYSTPFTFGPGTKLEIKGGGGSGGGGSGGGGSQVQLVQSGAEVKKPGSSVKVSCKTSADTFSANTINWVRQAPGHGLEWMGRIIPSLNIRDYAQEFQGRVTFTADESTNTVYMQLTSLRSEDTAVYYCARDPGSTWSPNQFFPHWGQGTLVTVSS
- binding: binds

B8: anti-mesothelin scFv-M7 (scFv)
scFv: DIRLTQSPSSLSASLGDRVTITCRASQAISSALAWYQQKPGKAPRLLIYDASTLESGVPSRFSGSGSGTDFTLTISSLQPEDFATYYCQQADSFPLTFGGGTKLEIKGGGGSGGGGSGGGGSQVQLVQSGAEVKKSGESLKISCKGSGYGFGAYWIAWVRQMPGKGLEWMGIIYPGDSRVIYSPYFQGQVTISADKSISTAYLQWSSLKASDTAMYYCARFGGPKFATNWFDIWGQGTTVTVSS
- binding: binds

B11: anti-mesothelin scFv-M12 (scFv)
scFv: AIRLTQSPSLLSASVGDRVTVTCRASQGGGNYLAWYQQKPGKAPKLLIYGASKLQSGVPSRFSGSGSGTEFTLTISSLQPEDFATYYCQQLNSYPVTFGQGTKVDIKGGGGSGGGGSGGGGSEVQLVESGAEVKKPGASVKVSCKASGYTFTTYYIHWVRQAPGQGLEWMGIINPSSGSTTYTQKFQGRVTMTRDTSTSTVYIELSGLRSEDTAVYYCARGETLRGYFDYWGQGTLVTVSS
- binding: binds

Continued, values first:

- binding: binds
B1: anti-mesothelin scFv-M27 (scFv)
scFv: EIVLTQSPGTLSLSPGERATLSCRASQPIVASHLAWYQHKPGQAPRLLIYGASTRAAGIPDRFSGSGSGTDFTLTISRLEPEDFAVYFCQQYGISPFTFGPGTKVDIKGGGGSGGGGSGGGGSQVQLVQSGAEVKKPGESLKISCQGSGYSFTDYWIGWVRQAPGQGLEWMGWITPNNGNTNYAPKFQGRVTLTTDTSTSTAYMELRSLTSDDTAVYFCARRGRNSSGYLYYYSMDVWGQGTTVTVSS

- binding: binds
B3: anti-mesothelin scFv-M37 (scFv)
scFv: DIVMTQTPSSLSASVGDRVTITCRASQGISNYLAWFQQKPGKAPKPLIYAASSLQSGVPSKFSGSGSGTDFTLTISNLQPEDFATYICQQYSSYPITFGQGTRLEIKGGGGSGGGGSGGGGSQLQLQESGPGLVKPSETLSLTCAVSGGSISPYYWTWIRQSPGKAMEWMGYIHYSGRTNYNPSLESRATFSVDTSKNQISLKLNSVTAADTAVYYCTKVGDPGLFDYWGPGTLVTVSS

- binding: binds
B6: anti-mesothelin scFv-M20 (scFv)
scFv: AIQMTQSPSSLSASVGNRVTITCRASQGISSAVAWYQQKPGKPPKLLISYASSLESGVPSRFSGSGSGTDFSLTISSLQPEDFATYFCQQFNSYPLTFGGGTKVEIKGGGGSGGGGSGGGGSQVQLVQSGAEVRKPGESLKISCKGSGYSFRDSWIAWVRQMPGQGLEWMGIIFPGDSNPIYSPSFQGQVTISADTSISTTFLQWRSLKASDSAIYYCARHAAWGAGWFDPWGQGTLVTVSS

- binding: binds
B7: anti-mesothelin scFv-M31 (scFv)
scFv: QSALTQPPSASGSPGQSVTISCTGTSSDIGGYNSVSWYQQHPGKAPKLIIYGVSRRPSGVPDRFSGSKSANTASLTVSGLQAVDEADYYCSSYGGSNNLLFGGGTKLTVLGGGGSGGGGSGGGGSEVHLVESGGGLAQPGGSLRLSCAASGFSFSSSWMAWVRQAPGKGLEWVANIKQDGSSQYYVDSVKGRFTISRDNAKNSLSLQMNSLRAEDTAVYYCARDIWYSIDYWGQGTLVTVSS

- binding: binds
B9: anti-mesothelin scFv-M32 (scFv)
scFv: DIRMTQSPSSLSASVGDRVTVTCQASEDINNSLNWYQQKPGKAPQLLIYDASDLETGVPSRFSGRGSGRDFTLTISSLQPEDFATYYCQQLNSYPLTFGGGTKLEIKGGGGSGGGGSGGGGSQVQLVQSGAEVKKPGASVKVSCKASGFTFIGYYLHWVRQAPGQGLEWMGIINPSGGRTSMAQKFQGRVSMTTDTSTGTVYLDLGRLGSDDTAVYYCARADNWNAGSMDVWGNGTTVTVSS

- binding: binds
B10: anti-mesothelin scFv-M24 (scFv)
scFv: QPVLTQPPSASGTPGQRVTISCSGSSSNIGSNYVYWYQQFPGTAPKLLIYMNNQRPSGVPDRFSGSKSGTSASLAISGLRSEDEADYYCAARDDSLSGYVTFGGGTKLTVLGGGGSGGGGSGGGGSEVHLVESGGGLVQPGGSLRLSCAASGFTFSSYAMSWVRQAPGKGLEWVSAISGSGGSTYYADSVKGRFTISRDNSKNTLYLQMNSLKTEDTAVYYCTRGVATFDYWGQGTLVTVSS

- binding: binds
B12: anti-mesothelin scFv-M28 (scFv)
scFv: QSALTQPPSASGSPGQSVTISCSGTSSDVGGYNFVSWYQHHPGKAPKLMIYEVSKRPSGVPDRFSGSKSGNTASLTVSGLQAEDEADYYCSSYAGRNNPYLFGTGTKLTVLGGGGSGGGGSGGGGSQLQLQESGAEVKKPGSSVKVSCKASGGTFSSYAISWVRQAPGQGLEWMGGIIPIFGTANYAQKFQGRVTITADESTSTAYMELSSLRSEDTAVYYCARDLGGYSYGHGLDYWGQGTLVTVSS

From patent US20250144213A1 (UTC THERAPEUTICS SHANGHAI, published 2025)
